Source: PubChem BioAssay AID540275 (National Center for Advancing Translational Sciences (NCATS), 2011)
Screen size: about 320,000 compounds; about 620 (0.19%) were called active. This list was built around the results that the source calls inconclusive (neither active nor inactive); the mix of calls is not that of the screen. Cut-off read from the data, not from the text of the source: active = activation above about 80%; inconclusive = between about 30% and that limit; inactive = weaker than that.

By UniProt entry, the sequences of proteins in these tests, tags left out.
UniProt Q8NER1, whole entry, looked up: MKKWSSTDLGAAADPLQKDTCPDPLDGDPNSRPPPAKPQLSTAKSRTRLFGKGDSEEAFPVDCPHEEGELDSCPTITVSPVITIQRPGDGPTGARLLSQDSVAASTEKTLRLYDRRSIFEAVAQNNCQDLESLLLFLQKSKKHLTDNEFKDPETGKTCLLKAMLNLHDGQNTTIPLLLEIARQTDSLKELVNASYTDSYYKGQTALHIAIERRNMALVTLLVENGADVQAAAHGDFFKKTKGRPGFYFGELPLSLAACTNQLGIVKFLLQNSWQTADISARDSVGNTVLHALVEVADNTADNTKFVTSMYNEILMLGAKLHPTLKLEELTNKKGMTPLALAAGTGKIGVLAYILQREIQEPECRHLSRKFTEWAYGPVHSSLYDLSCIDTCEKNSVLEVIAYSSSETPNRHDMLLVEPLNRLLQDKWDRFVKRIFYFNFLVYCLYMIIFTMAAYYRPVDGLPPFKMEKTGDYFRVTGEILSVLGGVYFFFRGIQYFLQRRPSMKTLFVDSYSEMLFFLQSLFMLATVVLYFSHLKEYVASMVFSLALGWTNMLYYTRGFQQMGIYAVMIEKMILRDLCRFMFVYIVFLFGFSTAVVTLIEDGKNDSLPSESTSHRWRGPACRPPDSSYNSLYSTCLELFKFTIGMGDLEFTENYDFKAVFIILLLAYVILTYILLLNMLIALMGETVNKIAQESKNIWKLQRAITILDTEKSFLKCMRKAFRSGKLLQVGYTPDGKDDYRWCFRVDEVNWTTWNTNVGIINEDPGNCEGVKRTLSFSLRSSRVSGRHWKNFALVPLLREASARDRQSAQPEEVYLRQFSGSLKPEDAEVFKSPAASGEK

target: Transient receptor potential cation channel subfamily V member 1 (Homo sapiens) (UniProt Q8NER1); experiment: HTS Assay for Compounds that Act as Agonists of the Vanilloid Receptor 1; settings: TRPV1-expressing cells, Fluo-8 calcium influx, agonist mode; at 8.33 µM, active compounds read high; note: 0% is about no effect
Outline: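 Fluo-8 calcium influx in TRPV1-expressing cells, kinetic read (ex 480/em 520 nm). Compound added and read 3 min for agonist activity, followed by capsaicin at EC20 final and 2 min further read for enhancement.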

Structure (SMILES) | activation
Cc1cccc(NC(=O)c2ccc3c(Cl)c4c(nc3c2)CCCC4)n1 | inconclusive: 41.3%
CC1(C)Cc2cccc(OCC(=O)NCCOc3ccccc3)c2O1 | inconclusive: 46.3%
O=C(c1ccc(F)cc1)C1CCN(C(=O)Nc2ccc(F)cc2)CC1 | inconclusive: 76.5%
CC1(C)CC(=O)C=C(Nc2ccc(Cl)c(Br)c2)C1 | inconclusive: 32.5%
CN(Cc1ccccc1)C1CCCN(C(=O)c2ccc(Cl)s2)C1 (stereo unspecified) | inconclusive: 31.6%
COc1ccc(-c2cc(C(F)F)n3ncc(C(=O)Nc4cc(C)on4)c3n2)cc1 | active: 84.7%
CCc1cc2c(=O)c(-c3cscn3)coc2c(CN(C)C)c1O | inactive: -4.19%
COc1cccc(/C=N/NC(=O)c2cc3c(OC)ccc(OC)c3[nH]2)c1O | inactive: -4.54%
CCc1ccc(NC(=O)CCS(=O)(=O)c2ccc(Cl)cc2)cc1 | inconclusive: 35.3%
Cc1cc(N2CCN(c3ccccc3)CC2)nc(N2CCOCC2)n1 | inconclusive: 33.9%
Cc1cc(Sc2nnc(N)s2)c2ccccc2n1 | inactive: -10.6%
c1ccc(CN2CCN(c3ncnc4c3[nH]c3ccccc34)CC2)cc1 | active: 80.2%
COc1ccc(OCC(=O)N2CCN(c3cccc(C(F)(F)F)c3)CC2)cc1 | inconclusive: 30.2%
Cc1ccc(-c2csc(NC(=O)c3cccs3)n2)cc1 | inconclusive: 64.8%
O=[N+]([O-])c1cc([N+](=O)[O-])c(Oc2c(Cl)cccc2Cl)cc1NN1CCCCC1 | inconclusive: 53.1%
Cc1ccc(S(=O)(=O)NCCSC(C)(C)C)cc1 | inconclusive: 32.5%
CCCCCCSc1cc(-c2nc3ccc(C)cn3c2NCc2ccccc2)ccc1OC | inconclusive: 70.3%
Cc1ccccc1NC(=S)NC(=O)COc1ccccc1C | inactive: 3.98%
Cc1ccc(S(=O)(=O)N(CC(=O)N2CCC(C)CC2)Cc2ccccc2F)cc1 | inconclusive: 54.5%
O=C(Nc1ccc(S(=O)(=O)C(F)F)cc1)c1cccc(S(=O)(=O)N2CCOCC2)c1 | inconclusive: 70.4%
CCOC(=O)C1CCCN(CC(=O)Nc2c(C(=O)OC)[nH]c3ccc(C)cc23)C1 (stereo unspecified) | inconclusive: 63.9%
COc1ccc(-c2c(-c3cc(OC)cc(OC)c3)n(C)c3ccc(-c4ccn[nH]4)cc23)cc1 | inactive: -1.55%
Cc1csc(NC(=O)CSc2ccc(-c3ccc(F)cc3)nn2)n1 | inconclusive: 65.8%

Structure (SMILES) | activation
CC(C)OCCCNC(=O)CCSc1ccc(Cl)cc1 | inconclusive: 31.2%
NC(=O)CSc1nnc(COc2ccccc2)n1C1CCCCC1 | inactive: 0.613%
CCOc1ccccc1CNS(=O)(=O)c1cc(-c2cc(C)no2)ccc1C | inconclusive: 59.2%
O=C(c1ccccc1[N+](=O)[O-])N1CCC(Cc2ccccc2)CC1 | inactive: 0.206%
O=C(c1ccc2ccccc2c1)C1CCCN(C(=O)c2noc3c2CCCC3)C1 (stereo unspecified) | inconclusive: 62.7%
O=C(COC(=O)c1cccc(S(=O)(=O)N2CCCC2)c1)NCc1ccccc1 | inconclusive: 37%
Cc1ccc(Cl)cc1N1CCN(S(=O)(=O)c2c(C)[nH]c(C)c2C(=O)N2CCCCC2)CC1 | inactive: 8.09%
COC(=O)c1[nH]c2ccc(C)cc2c1NS(=O)(=O)c1ccc(F)c(C)c1 | inconclusive: 41.2%
COc1ccc(CNC(=S)Nc2cc(C)ccc2C)cc1 | inactive: 20.1%
O=C1c2ccccc2C(Nc2ccccc2)N1Cc1ccc2c(c1)OCO2 (stereo unspecified) | inconclusive: 78.4%
CCc1ccc2oc(C(=O)N3CCN(c4ccc(OC)cc4)CC3)cc(=O)c2c1 | inconclusive: 63.8%
O=C(CNc1cccc(C(F)(F)F)c1)N/N=C/C1CCCCC1 | active: 97.1%
O=C(CN1CCN(c2ccc(Cl)cc2)CC1)Nc1ccc(F)cc1 | inconclusive: 32.4%
O=C(OCC(=O)C12CC3CC(CC(C3)C1)C2)c1cccnc1Cl | inconclusive: 36.7%
Cc1cccc(N2CCN(C(=O)c3ccc4ncsc4c3)CC2)c1C | inconclusive: 43%
CCOC(=O)Cn1c(=O)c2c(nc(N3CCCCC3)n2Cc2ccccc2)n(C)c1=O | inconclusive: 43.2%
CC(C)Oc1cccc(C(=O)NC2=NCCS2)c1 | inconclusive: 45.8%
Cc1cccc(CC(Cc2nc3ccccc3[nH]2)c2nc3ccccc3[nH]2)c1 (stereo unspecified) | inconclusive: 72.3%
CC(C)Cc1cc(C(=O)N(C)C2CCCN(Cc3ccccc3F)C2)n(C)n1 (stereo unspecified) | inconclusive: 36.9%
Cc1ccc(C(=O)N/N=C/C=C/c2ccccc2)o1 | inconclusive: 35.1%
CC1CCCCN1C(=O)c1cc(-c2ccc(Cl)c(Cl)c2)on1 (stereo unspecified) | inconclusive: 64.1%
O=c1c2[nH]c3ccc(Br)cc3c2ncn1Cc1ccncc1 | inactive: -0.273%
CC(Sc1nc2ccccc2s1)C(=O)Nc1nnc(C(C)C)s1 (stereo unspecified) | inactive: 26.3%

Molecules from the list above with a nitro group on carbon (two):
Structure (SMILES) | activation
O=[N+]([O-])c1cc([N+](=O)[O-])c(Oc2c(Cl)cccc2Cl)cc1NN1CCCCC1 | inconclusive: 53.1%
O=C(c1ccccc1[N+](=O)[O-])N1CCC(Cc2ccccc2)CC1 | inactive: 0.206%

The results go on.

Structure (SMILES) | activation
CC1(C)Cc2ccccc2C(C(=O)c2ccccc2)=N1 | inactive: 1.37%
C/C(=N\NC(=O)c1cccc(S(=O)(=O)N2CCOCC2)c1)c1ccc(C)cc1 | inconclusive: 32.8%
O=C(Cc1ccccc1)Nc1ccc2c(c1)CCC2 | inconclusive: 44.9%
CC(C)OC(=O)CC(NC(=O)OC(C)(C)C)c1ccccc1 (stereo unspecified) | inconclusive: 42.6%
O=C(c1ccc(Cn2c(=S)[nH]c3ccc(Br)cc3c2=O)cc1)N1CCN(C2CCCCC2)CC1 | inactive: 6.71%
O=c1c2ccccc2nc(/C=C/c2ccccc2)n1CCc1ccccc1 | inconclusive: 51.5%
COc1ccc(S(=O)(=O)N2CCCCC2)cc1NC(=O)CCCNC(=O)c1ccc(Cl)cc1 | inactive: 9.31%
COc1nc(NC2CCCCC2)nc(N2CCCCCC2)n1 | inconclusive: 32.5%
Cc1ccc(-c2cc(-c3ccccc3)nc(Cl)n2)cc1 | inconclusive: 38.4%
CC(NC(=O)c1ccc(C(C)(C)C)cc1)C(c1cccs1)N1CCOCC1 (stereo unspecified) | inconclusive: 38.2%
CCC(C)(C)n1nnnc1C(c1ccc(C)cc1)N1CCC(C)CC1 (stereo unspecified) | inconclusive: 55.4%
COc1ccc2nc(C)cc(SCC(=O)N/N=C/c3ccc(O)c(O)c3)c2c1 | inconclusive: 44.9%
CC(=O)c1cccc(NC(=O)c2ccc3c(c2)CCN3S(=O)(=O)c2ccccc2)c1 | inconclusive: 73.3%
COCCNC(=O)c1cc2c3ccccc3n(C)c2s1 | inconclusive: 43.1%
CCn1ncc(CN2CCCC(C(=O)Nc3cccc(-c4cc5ccccc5[nH]4)c3)C2)c1C (stereo unspecified) | inactive: 8.92%
COc1ccc(NC(=O)/C=C/c2ccco2)cn1 | inconclusive: 74.1%
CC1(C)CC(=O)c2cnn(-c3nc4ccccc4[nH]3)c2C1 | inactive: 4.07%
Cc1ccc(C(=O)Nc2ncc(Cc3ccccc3)s2)o1 | inconclusive: 58.9%
Cc1cc(C)n(-c2ccc(C(=O)OC(C)C(=O)Nc3ccc(C(N)=O)cc3)cc2)n1 (stereo unspecified) | inconclusive: 40.9%
COc1ccc(CN2CCN(C(=O)c3cccnc3)CC2)cc1Br | inactive: 5.99%
Cc1ccc(-n2[nH]c(=O)c(-c3ccccn3)c2C)cc1 | inactive: -0.805%
COCC(C)NC(=S)NCCc1ccc(Cl)cc1Cl (stereo unspecified) | inconclusive: 60%
Cc1occc1-c1nnc(SCC(=O)N2CCCCC2)o1 | inconclusive: 39.6%

Structure (SMILES) | activation
CCOc1ccc(N(CC(=O)Nc2cccc(OC)c2)S(=O)(=O)c2c(C)noc2C)cc1 | inactive: 7.58%
CCCOc1ccc(/C(O)=C2/C(=O)C(=O)N(CCOC)C2c2cccnc2)cc1 (stereo unspecified) | inactive: 2.2%
CC(C)C[C@@H](CO)N(Cc1ccccc1)S(=O)(=O)N(Cc1ccccc1)[C@@H](CO)CC(C)C | inconclusive: 44.6%
CCn1cc(C(=O)Nc2ccc(C)c([N+](=O)[O-])c2)cn1 | inconclusive: 60.6%
O=C(O)CCC(=O)NN1C(=O)c2ccccc2NC1c1ccco1 (stereo unspecified) | inactive: 1.57%
N#C/C(=C\c1ccccc1Br)C(=O)NC1CC1 | inactive: 8.12%
O=C(Nc1nc(-c2ccco2)cs1)c1ccccc1 | inconclusive: 45.8%
Brc1ccc(-c2cnc3n2CCCC3)cc1 | inconclusive: 65.4%
CC1CCN(C(C(=O)NC2CCCCC2)c2cc3c(cc2[N+](=O)[O-])OCO3)CC1 (stereo unspecified) | inconclusive: 41.3%
C=CCc1ccc(O)c(-c2ccc(O)c(CC=C)c2)c1 | inactive: 15.1%
Cc1cc(C)nc(SCc2ccc(C(=O)N/N=C/c3ccncc3)cc2)n1 | inconclusive: 54.9%
CS(=O)(=O)c1ccc2nc(NC(=O)c3cccs3)sc2c1 | inactive: 10.9%
O=C(N/N=C/c1cccc(OCc2ccccc2)c1)c1ccc(Br)o1 | inconclusive: 35.7%
Cc1ccc(CNC(=S)NCc2ccncc2)cc1 | inconclusive: 79.6%
CCN(CC)CCN(Cc1cc2cc3c(cc2[nH]c1=O)OCO3)C(=S)NCc1ccco1 | inconclusive: 50.9%
O=C(COC(=O)C(c1ccccc1)c1ccccc1)NCc1ccco1 | inconclusive: 40.4%
Nc1nc(SCc2ccc(Cl)c(Cl)c2)n[nH]1 | inconclusive: 41.7%
CN(C)c1cc(-c2ccc(Br)cc2)oc(=O)c1Cl | inconclusive: 55.2%
COc1nc(N)c(C#N)c(-c2ccc(N(C)CCC#N)cc2)c1C#N | inactive: -1.08%
Cc1cccc2cc(CN(CC3CCCO3)C(=S)Nc3ccccc3)c(=O)[nH]c12 (stereo unspecified) | inactive: 2.12%
O=C(CSc1nc2c(c(C(F)(F)F)n1)CCc1ccccc1-2)NCc1ccccc1 | inconclusive: 44%
Cc1ccc(NC(=O)c2ccc(-n3cncn3)c([N+](=O)[O-])c2)cc1 | inconclusive: 38.2%

Two entries from above, with tabs.
Structure (SMILES)	activation
CC(C)Oc1cccc(C(=O)NC2=NCCS2)c1	inconclusive: 45.8%
Cc1cccc(CC(Cc2nc3ccccc3[nH]2)c2nc3ccccc3[nH]2)c1 (stereo unspecified)	inconclusive: 72.3%
